Experimental data published in PMC4281351, “Heterogeneity of quaternary structure of glucosamine-6-phosphate deaminase from Giardia lamblia” (Parasitology Research, 2014).
These are yes or no findings as the source states them, for the method shown. Some entries that bind do so weakly or less than the wild type. Tags and fused reporters may be left off the sequences shown.

Biological target: G. lamblia GlcN6P deaminase with C-terminal His6 fusion (GlmNagB-HisC) (Giardia lamblia) (UniProt O97439)
Assay: native gel or EMSA; native PAGE, NativePAGE system with Novex 4-16 % Bis-Tris gels; fractions collected from SEC; both purified

B1: G. lamblia GlcN6P deaminase with C-terminal His6 fusion (GlmNagB-HisC) (enzyme, Giardia lamblia, UniProt O97439 1-266, looked up)
chain: MPSIHVSKCADPAIKLAHRIAEVVRSKPNCVLGLATGSTPIPVYQELARLHREEGLDFSQVRTFNLDEYAGLPPTHDQTYRFFMEEHLFSKVNIKPENVHFLNGMASDYEKECERYEQELKAIGPCDVWLLGIGHNGHIAFNEPGSPRDSRTRVVCLTQSTIDANARFFGNDKSKVPTKALSVGIATIMESREILLLATGESKREAVTKSVKGKCETHCPASFLHEHPHCRFYVDMDAGKVVDNTCCQATNQASCCGSTSCHAAKA
notes: glucosamine-6-phosphate deaminase of Giardia lamblia, GPI1 (GN6PI) gene cloned from strain MR4; forward primer from the start ATG, reverse primer adds six His codons after the last codon and then the stop; calculated mass 30.2 kDa with the tag; pETTopo-GlmNagB-HisC; hexaHis stands directly at the C-terminus; source: E. coli BL21(DE3) pLysS, purified (Ni2+-IDA agarose); not shown: His6, …
  binding: binds
